Data published in patent US20140294825A1.
No constants are given. Whether binding was seen depends on the method and setting. Some binding calls cover weakened binding; strength is not graded here.

By UniProt entry, the sequences of proteins in these tests, tags left out. Residues count along the entry.
UniProt P08637, residues 17-254: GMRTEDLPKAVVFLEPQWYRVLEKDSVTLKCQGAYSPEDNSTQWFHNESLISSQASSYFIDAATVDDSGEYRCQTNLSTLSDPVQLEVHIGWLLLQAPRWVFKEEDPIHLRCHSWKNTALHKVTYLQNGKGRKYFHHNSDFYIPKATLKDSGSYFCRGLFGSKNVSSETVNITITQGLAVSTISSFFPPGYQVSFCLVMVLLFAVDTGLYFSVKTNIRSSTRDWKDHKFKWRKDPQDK

Target: human CD16 (human) (UniProt P08637)
Experiment: flow cytometry on HEK293 cells transiently expressing human CD16, 1 µg/ml antibody

| binding | Binder |
| --- | --- |
| binds | Ch9G6-IgG3D (antibody) heavy: QVQLQQSGPELVKPGASVKISCKASGYTFSTSWMNWVKQRPGQGLEWIGRIYPGDGDTNYNGKFKGKATLTADKSSNTAYMQLSSLTSVDSAVYFCERFYYGNTFAMDYWGQGTSVTVSSASTKGPSVFPLAPCSRSTSGGTAALGCLVKDYFPEPVTVSWNSGALTSGVHTFPAVLQSSGLYSLSSVVTVPSSSLGTQTYTCNVNHKPSNTKVDKRVEPKSCDTPPPCPRCPAPELLGGPSVFLFPPKPKDTLMISRTPEVTCVVVDVSHEDPEVQFKWYVDGVEVHNAKTKPREEQYNSTFRVVSVLTVLHQDWLNGKEYKCKVSNKALPAPIEKTISKTKGQPREPQVYTLPPSREEMTKNQVSLTCLVKGFYPSDIAVEWESSGQPENNYNTTPPMLDSDGSFFLYSKLTVDKSRWQQGNIFSCSVMHEALHNRFTQKSLSLSPGK light: DVLMTQIPLSLPVSLGDQASISCRSSQSIVHSNGNTYLEWYLQKPGQSPKLLIYKVSNRFSGVPDRFSGSGSGTDFTLKISRVEAEDLGVYYCFQGSHVPFTFGSGTKLEIKRTVAAPSVFIFPPSDEQLKSGTASVVCLLNNFYPREAKVQWKVDNALQSGNSQESVTEQDSKDSTYSLSSTLTLSKADYEKHKVYACEVTHQGLSSPVTKSFNRGEC |
| binds | Ch9G6-MVIgG3D (antibody) heavy: QVQLQQSGPELVKPGASVKISCKASGYTFSTSWMNWVKQRPGQGLEWIGRIYPGDGDTNYNGKFKGKATLTADKSSNTAYMQLSSLTSVDSAVYFCERFYYGNTFAMDYWGQGTSVTVSSASTKGPSVFPLAPCSRSTSGGTAALGCLVKDYFPEPVTVSWNSGALTSGVHTFPAVLQSSGLYSLSSVVTVPSSSLGTQTYTCNVNHKPSNTKVDKRVEPKSCDTPPPCPRCPAPELLGGPSVFLFPPKPKDTLMISRTPEVTCVVVDVSHEDPEVQFKWYVDGVEVHNAKTKPREEQYNSTFRVVSVLTVLHQDWLNGKEYKCKVSNKALPAPIEKTISKTKGQPREPQVYTLPPSREEMTKNQVSLTCLVKGFYPSDIAVEWESSGQPENNYNTTPPMLDSDGSFFLYSKLTVDKSRWQQGNIFSCSVMHEALHNRFTQKSLSLSPGKDQDTAIRVFAIPPSFASIFLTKSTKLTCLVTDLTTYDSVTISWTRQNGEAVKTHTNISESHPNATFSAVGEASICEDDWNSGERFTCTVTHTDLPSPLKQTISRPKGVALHRPDVYLLPPAREQLNLRESATITCLVTGFSPADVFVQWMQRGQPLSPEKYVTSAPMPEPQAPGRYFAHSILTVSEEEWNTGETYTCVVAHEALPNRVTERTVDKSTGKPTLYNVSLVMSDTAGTCY light: DVLMTQIPLSLPVSLGDQASISCRSSQSIVHSNGNTYLEWYLQKPGQSPKLLIYKVSNRFSGVPDRFSGSGSGTDFTLKISRVEAEDLGVYYCFQGSHVPFTFGSGTKLEIKRTVAAPSVFIFPPSDEQLKSGTASVVCLLNNFYPREAKVQWKVDNALQSGNSQESVTEQDSKDSTYSLSSTLTLSKADYEKHKVYACEVTHQGLSSPVTKSFNRGEC |
